Test results from PubChem BioAssay AID624297 (National Center for Advancing Translational Sciences (NCATS), 2012).
Screen size: about 340,000 compounds; about 6,200 (1.8%) were called active. The shares of active, inactive and inconclusive entries below differ from those in the screen. The call rests on the fitted dose curve; in most records, active means well fitted activation curve with a large enough effect; inconclusive means small, poorly fitted or top-dose-only effect; inactive means no such curve, though single readings can be large or run the other way. Potencies of inconclusive entries are doubtful fits and often do not repeat.

assay: A quantitative high throughput screen for small molecules that induce DNA re-replication in SW480 colon adenocarcinoma cells.; further: nearly all actives have a fitted effect of over 55% in size; on re-replication activation: % of control where 0% means no effect; conditions: Hoechst DNA content imaging, 48 h; re-replication activation: at 46.1 µM (top of the series) unless noted
Method in brief: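 Readout is total intensity of Hoechst-stained nuclei, excited at 405 nm and collected at 500-530 nm. Compound treatment lasted 48 hr at 37 C in 5% CO2 before staining.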
Potency means the concentration at half of the fitted maximal effect.

| Structure (SMILES) | Potency | re-replication activation |
| --- | --- | --- |
| C/C(=N\O)c1ccc(Cl)c(Cl)c1 | inactive |  |
| CC(=O)Nc1ccc(CN2CCc3c([nH]c4ccccc34)C2c2ccccn2)cc1 (stereo not given) | inconclusive: 7.31 µM [activator, partial curve] |  |
| CC(C)c1ccc(NC2=NCC(=O)N2Cc2cccs2)cc1 | inconclusive: 18.4 µM [activator, single point] |  |
| CC1CCN(CCCCOc2ccc(C(C)(C)C)cc2)CC1 | inconclusive: 18.4 µM [activator, single point] |  |
| COc1ccc(Cl)cc1C(=O)OCC(=O)NCc1cccs1 | inconclusive: 29.1 µM [activator, single point] |  |
| CCCCNS(=O)(=O)c1ccc(Br)cc1N1CCC[C@H]1CO | inactive |  |
| CC(O)CNCc1ccc(-c2ccccc2)cc1 (stereo not given) | inconclusive: 23.1 µM [activator, partial curve, poor fit] |  |
| Cc1c(C(=O)Nc2ccc3c4c(cccc24)CC3)cccc1[N+](=O)[O-] | inconclusive: 20.6 µM [activator, single point] |  |
| CC1(C)CC(C(CC(=O)O)c2ccccc2)CCO1 (stereo not given) | inactive |  |
| O=C(/C=C/c1ccccc1Br)c1ccc2c(c1)OCO2 | inconclusive: 18.4 µM [activator, single point] |  |
| CC[n+]1ccc(/C=C/c2c[nH]c3ccccc23)cc1 | inconclusive: 16.4 µM [activator, partial curve] |  |
| CCCCn1c(N)c(N(CCOC)C(=O)c2nn(CC)c(=O)c3ccccc23)c(=O)[nH]c1=O | inactive |  |
| CC1CC(C)CN(S(=O)(=O)c2ccc(C(=O)NCc3ccc4c(c3)OCO4)cc2)C1 (stereo not given) | inactive |  |
| COc1cc(/C=N\NC(=O)c2ccc(-c3ccccc3)cc2)cc(Br)c1O | inconclusive: 29.1 µM [activator, single point] |  |
| CCN(CC)S(=O)(=O)c1ccc(-c2ccc(S(=O)(=O)N(CC)CC)cc2)cc1 | inactive |  |
| COC(=O)c1cn(C(=O)c2ccc(OC)c(OC)c2)c2ccccc12 | inactive |  |
| CC1(C)CC(=O)C(C2C3=C(CC(C)(C)CC3=O)Oc3ccc4ccccc4c32)C(=O)C1 (stereo not given) | inconclusive: 29.1 µM [activator, single point] |  |
| Cc1ccc(NC(=O)c2ccccc2F)cc1S(=O)(=O)N1CCCCCC1 | inactive |  |
| CCOc1ccccc1NC(=O)C1C2CCC3C(CCC21)C3(Cl)Cl (stereo not given) | inconclusive: 0.92 µM [activator, full curve, poor fit] |  |
| C=CCNC(=O)C(=O)NCCOc1ccccc1Cl | active: 20.6 µM |  |
| C[C@H](CO)N1C[C@H](C)[C@@H](CN(C)S(C)(=O)=O)Oc2c(NC(=O)c3ccncc3)cccc2C1=O | inconclusive: 1.64 µM [activator, partial curve, poor fit] |  |
| Cc1ccccc1C(=O)N1CCN(c2ccc(NC(=O)c3ccc4c(c3)OCCO4)cc2)CC1 | inactive |  |
| O=C(O)c1ccc(NC(=S)N2CCCCC2)cc1 | inactive |  |
| O=C(NC(Cc1c[nH]c2ccccc12)C(=O)N/N=C/c1ccc(Cl)cc1)c1cccs1 (stereo not given) | inconclusive: 32.6 µM [activator, partial curve, poor fit] |  |

As entered above.
In Potency, CC1CCN(CCCCOc2ccc(C(C)(C)C)cc2)CC1 is listed with inconclusive: 18.4 µM [activator, single point]
In Potency, CCCCNS(=O)(=O)c1ccc(Br)cc1N1CCC[C@H]1CO is listed with inactive
In Potency, CC1(C)CC(=O)C(C2C3=C(CC(C)(C)CC3=O)Oc3ccc4ccccc4c32)C(=O)C1 (stereo not given) is listed with inconclusive: 29.1 µM [activator, single point]
In Potency, CC[n+]1ccc(/C=C/c2c[nH]c3ccccc23)cc1 is listed with inconclusive: 16.4 µM [activator, partial curve]

Continuation.

| Structure (SMILES) | Potency | re-replication activation |
| --- | --- | --- |
| COc1ccc(C(=O)NC2CCCc3c2cnn3-c2cccc(C)c2C)c(OC)n1 (stereo not given) | inconclusive: 29.1 µM [activator, single point] |  |
| COc1ccc(OC)c(N2CC(O)(c3cccs3)[N+]3=C2SCCC3)c1 (stereo not given) | inconclusive: 5.17 µM [activator, single point] |  |
| COc1ccc(C(=O)/C=C/Nc2ccc(S(N)(=O)=O)cc2)cc1OC | inconclusive: 29.1 µM [activator, single point] |  |
| Cc1ccc(C)c(CN2CCC(CNC(=O)Nc3ccc(F)c(Cl)c3)CC2)c1 | active: 18.4 µM |  |
| CCc1nnc(NC(=O)CCC(=O)N2CCN(Cc3ccc(F)cc3)CC2)s1 | inconclusive: 0.326 µM [activator, single point] |  |
| COc1ccc(-c2onc(C)c2-c2cnn(-c3ccccc3)c2)c(O)c1C | inconclusive: 29.1 µM [activator, single point] |  |
| CC(=O)Nc1c(Br)cc2c(c1Br)Cc1cc(Br)ccc1-2 | inconclusive: 18.4 µM [activator, partial curve, poor fit] |  |
| Cc1ccc(C(=O)OCC(=O)Nc2c(Cl)cc(S(N)(=O)=O)cc2Cl)o1 | inactive |  |
| CCc1ccc(Nc2cc(=O)n(C3CCCCC3)c(=O)[nH]2)cc1 | inconclusive: 32.6 µM [activator, partial curve, poor fit] |  |
| Cc1ccc(NC(=O)CN2C(=O)NC3(CCCCCC3)C2=O)cc1Cl | inactive |  |
| CSCCC(NS(=O)(=O)c1ccccc1F)C(=O)NNC(=O)c1csc(N2CCOCC2)n1 (stereo not given) | inconclusive: 11.6 µM [activator, single point] |  |
| COc1cccc(C(=O)NC(=S)NCc2ccco2)c1 | inactive |  |
| Cc1ccc(NC(=O)c2cnc(N3CCN(c4ccccn4)CC3)c3ccccc23)c(Br)c1 | inconclusive: 18.4 µM [activator, single point] |  |
| COC(=O)CCCC1=CC2=CC(=O)C(C)(OC(=O)c3cccs3)C(=O)C2=CN1C1CCCC1 (stereo not given) | inconclusive: 2.59 µM [activator, partial curve, poor fit] |  |
| O=c1[nH]n(-c2cccc3cccnc23)c(=O)c2ccccc12 | inactive |  |
| CCCNC(=O)c1sc2c(c1C(=O)Nc1ccccn1)CCCC2 | inactive |  |
| CCOC(=O)c1sc2nc(CSc3ccccc3)nc(N3CCCN(C)CC3)c2c1C | inconclusive: 29.1 µM [activator, single point] |  |
| Cc1ccc(-c2nn(-c3ccccc3)cc2/C=C(\C#N)c2cccc(C#N)c2)o1 | inconclusive: 13 µM [activator, partial curve, poor fit] |  |
| CCOC(=O)CCCCCC(=O)Nc1ccc2c(c1)CC(=O)N([C@@H](C)CO)C[C@H](C)[C@@H](CN(C)Cc1ccccc1)O2 | inactive |  |
| C/C(=N\NC(=O)CN(c1ccccc1)S(=O)(=O)c1ccccc1[N+](=O)[O-])C(C)(C)C | inconclusive: 10.3 µM [activator, single point] |  |
| CN(c1ccc(C(=O)Nc2ccccn2)cc1)S(=O)(=O)c1ccccc1 | inactive |  |
| CCS(=O)(=O)N1CCN=C1SCc1ccc(F)cc1 | inactive |  |
| Cc1noc(C)c1S(=O)(=O)N(CC(=O)NC1CCC(C)CC1)c1ccc(C(C)C)cc1 (stereo not given) | inconclusive: 14.6 µM [activator, partial curve, poor fit] |  |
| COc1ccc(CCC(=O)N2CCN(S(=O)(=O)c3ccc4ccccc4c3)CC2)cc1 | inactive |  |

| Structure (SMILES) | Potency | re-replication activation |
| --- | --- | --- |
| C/C(=N\Nc1ccc(Cl)c(C(=O)O)c1)c1ccc(Br)s1 | inactive |  |
| O=C(COc1ccc([N+](=O)[O-])cc1)Nc1ccc2c(c1)CCC2 | inconclusive: 16.4 µM [activator, single point] |  |
| COc1ccc(C(=O)C(C)Sc2nnc(C3CC3)n2C2CC2)cc1 (stereo not given) | inactive |  |
| COc1cccc(/C=N/NC(=O)c2nnn(-c3nonc3N)c2C(C)C)c1OCc1ccc(F)cc1 | inconclusive: 0.708 µM [activator, full curve, poor fit] |  |
| Cc1nc(N2CCN(C)CC2)c2c(C)c(C(=O)Nc3ccc(F)cc3)sc2n1 | inactive |  |
| Cc1ccc(NC(=O)c2ccc(NC(=O)c3ccccc3)cc2)cc1C | inconclusive: 29.1 µM [activator, partial curve, poor fit] |  |
| Cc1ccc(P(=O)(CSC(=N)N)c2ccc(C)cc2)cc1 | inconclusive: 20.6 µM [activator, single point] |  |
| O=C(O)c1ccc(Nc2cc(Cl)c3nonc3c2[N+](=O)[O-])cc1 | inconclusive: 16.4 µM [activator, single point] |  |
| N#Cc1ccc(OCc2noc(-c3ccsc3)n2)cc1 | inconclusive: 23.1 µM [activator, single point] |  |
| Nc1ccc2nn(-c3ccc(F)cc3)nc2c1 | inconclusive: 29.1 µM [activator, single point] |  |
| O=c1nc(Nc2ccc(OCc3ccccc3)cc2)sc2ncccc12 | inconclusive: 32.6 µM [activator, single point] |  |
| CCn1cc(C(=O)OC)c(=O)c2ccc(C)nc21 |  | inconclusive: -24.4% [activator] |
| O=C1c2ccccc2CC1Sc1nnc(-c2ccccn2)o1 (stereo not given) | inconclusive: 20 µM [activator, single point] |  |
| O=C(COc1ccccc1[N+](=O)[O-])N/N=C/C=C/c1ccco1 | inactive |  |
| Cc1ccc(/C(=N/Nc2nc3ccccc3s2)C2=C(O)c3ccccc3C2=O)cc1 | inconclusive: 29.1 µM [activator, single point] |  |
| CCn1c2ccccc2c2cc(/C=N/NC(=O)c3ccccc3C)ccc21 | active: 13 µM |  |
| Cc1noc(NS(=O)(=O)c2ccc(NC(=O)C(F)(F)C(F)(F)C(F)(F)F)cc2)c1C | inactive |  |
| COc1ccc(CC(=O)OCC(=O)NNC(=O)c2ccccc2)cc1 | inconclusive: 0.116 µM [activator, full curve, poor fit] |  |
| CC(C)CCN(C(=O)Nc1ccccc1)C(C)c1cccs1 (stereo not given) | inconclusive: 14.6 µM [activator, partial curve] |  |
| COc1ccccc1C1C([N+](=O)[O-])=CC([N+](=O)[O-])=CN1C (stereo not given) | inconclusive: 23.1 µM [activator, single point] |  |
| Cc1cc(C(=O)N2CCN(c3ncccn3)CC2)c2cc(F)ccc2n1 | inconclusive: 29.1 µM [activator, single point] |  |
| CN(c1ccccc1)S(=O)(=O)c1ccc(C(=O)OCC(=O)NC(N)=O)cc1 | inconclusive: 3.66 µM [activator, single point] |  |
